# PubChem BioAssay AID1259308 | NCATS – 2017
# Purpose: 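Candidate targets for better recombinant protein yield in mammalian cells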 (primary screen)
# Cells: human HEK293 embryonic kidney cells stably expressing firefly luciferase (HEK-CMV-Luc2-Hygro)
# Reagents: single siRNA against human genes, 0.8 pmol siRNA per well
# Time to read-out: 72 h
# Measurement: 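Luciferase light (ONE-Glo) measured on one replicate plate set and viability (CellTiter-Glo) on the other, scaled to a negative control siRNA, with robust z-scores and luciferase per cell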
# Direction: total luciferase, z-score and total luciferase, % of control: higher = more reporter protein produced; luciferase per cell, z-score: higher = more reporter output per viable cell; viable cells, % of control: higher = more viable cells
# Call rule: 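Active when the median/MAD z-score for overall luciferase is greater than 3; a gene was taken forward for validation with new siRNAs if at least two of its three siRNAs passed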
# Calls: active = raised luciferase; inactive = no rise
# This is one part, drawn at random, of about 59,000 deposited reagents. In the full data, about 1,510 (2.6%) were called active. 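Calls use total luciferase alone and ignore viability, so some active siRNAs may act by altering cell number.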 Reagents against one gene are numbered here.
gene symbol,reagent,"total luciferase, z-score","total luciferase, % of control","luciferase per cell, z-score","viable cells, % of control",call
GEMIN4,1,-1.11,59.8,-0.908,84.9,inactive
GEMIN4,2,-0.946,63.1,-0.693,84.6,inactive
GEMIN4,3,0.602,93.9,-0.0493,106,inactive
DUSP26,1,1.69,116,1.58,85.1,inactive
DUSP26,2,2.55,133,1.79,92.5,inactive
DUSP26,3,1.98,121,2.75,65.7,inactive
TMEM175,1,1.83,118,1.95,79.1,inactive
TMEM175,2,0.169,85.2,-0.179,99.8,inactive
TMEM175,3,0.503,91.9,1.14,76.1,inactive
CD82,1,0.56,93,0.7,86.4,inactive
CD82,2,0.525,92.3,0.338,94.4,inactive
CD82,3,2.19,125,1.22,102,inactive
LOXHD1,1,1.02,102,0.747,93.8,inactive
LOXHD1,2,0.451,90.9,-0.14,105,inactive
LOXHD1,3,-0.15,78.9,-0.766,108,inactive
PPID,1,0.121,84.3,0.111,91.5,inactive
PPID,2,-1.7,48.2,-2.33,99.5,inactive
PPID,3,-0.444,73,-0.747,99.4,inactive
MBLAC2,1,0.47,91.2,0.0121,102,inactive
MBLAC2,2,0.58,93.4,0.67,87.5,inactive
MBLAC2,3,0.077,83.4,0.11,90.5,inactive
SYTL1,1,0.0214,82.3,0.00434,91.9,inactive
SYTL1,2,-0.527,71.4,-1.01,104,inactive
SYTL1,3,-1.86,44.8,-1.35,71.4,inactive
S1PR2,1,-0.767,66.6,-0.878,93.8,inactive
S1PR2,2,-1.21,57.8,-1.32,91.4,inactive
S1PR2,3,2.01,122,1.06,103,inactive
OCIAD2,1,0.0774,83.4,0.619,79.2,inactive
OCIAD2,2,-0.0647,80.6,0.123,87.2,inactive
OCIAD2,3,-0.569,70.6,-0.102,81,inactive
PCBP2,1,0.709,96,0.493,94.2,inactive
PCBP2,2,-1.47,52.7,-0.556,68.1,inactive
PCBP2,3,-0.0956,80,0.416,80.1,inactive
SLC38A1,1,-1.27,56.6,0.79,51.3,inactive
SLC38A1,2,0.244,86.7,0.648,81.7,inactive
SLC38A1,3,-1.04,61.3,-0.556,79.2,inactive
NRG2,1,1.32,108,0.512,106,inactive
NRG2,2,-0.26,76.7,-0.138,88.9,inactive
NRG2,3,0.25,86.9,-0.264,104,inactive
MYO18B,1,-1.9,44.1,-1.82,79.5,inactive
MYO18B,2,-0.539,71.2,-0.603,93.2,inactive
MYO18B,3,-1.12,59.6,-1.46,97.7,inactive
DYNLT2B,1,1.82,118,1.83,81.4,inactive
DYNLT2B,2,0.35,88.9,0.13,95.9,inactive
DYNLT2B,3,2.46,131,2.42,77.4,inactive
PTPRJ,1,-0.661,68.7,-0.64,90.9,inactive
PTPRJ,2,0.266,87.2,0.0334,96.6,inactive
PTPRJ,3,1.27,107,2.12,68.5,inactive
CCDC191,1,-0.261,76.7,-0.566,99.5,inactive
CCDC191,2,0.0502,82.9,-0.329,101,inactive
CCDC191,3,-0.466,72.6,0.166,77.7,inactive
PCDHGB1,1,0.617,94.2,-0.0879,108,inactive
PCDHGB1,2,-2.24,37.3,-1.9,68.6,inactive
PCDHGB1,3,2.09,123,2.36,74.1,inactive
DCK,1,0.281,87.5,0.307,90.2,inactive
DCK,2,-0.0463,81,-0.0573,91.9,inactive
DCK,3,-0.639,69.2,-0.206,81.6,inactive
CNRIP1,1,0.571,93.2,0.397,93.9,inactive
CNRIP1,2,0.367,89.2,-0.308,108,inactive
CNRIP1,3,0.825,98.3,0.479,96.8,inactive
LINC01446,1,-1.06,60.9,-0.0603,69.1,inactive
LINC01446,2,-0.275,76.4,-0.358,93.8,inactive
LINC01446,3,-0.403,73.9,-0.0577,83.8,inactive
AGO4,1,-1.26,56.9,-1.06,84,inactive
AGO4,2,-1.68,48.5,-1.11,72.6,inactive
AGO4,3,-1.08,60.3,-1.3,95,inactive
LRRC8C,1,-0.0528,80.8,-0.608,106,inactive
LRRC8C,2,-0.0027,81.8,-0.382,101,inactive
LRRC8C,3,-0.369,74.5,0.00886,83.1,inactive
NRN1L,1,0.574,93.3,1.13,77.3,inactive
NRN1L,2,1.15,105,0.186,111,inactive
NRN1L,3,-1.02,61.6,-1.4,99.4,inactive
LOC728999 (retired record),1,0.917,100,2.21,62.5,inactive
LOC728999 (retired record),2,4.82,178,2.99,90.4,active
LOC728999 (retired record),3,-0.511,71.7,-0.783,98.5,inactive
